The values below come from paper PMC6412872.

A negative result means that nothing was seen under these conditions. At least one verdict rests on a figure or table, not on a statement of the authors. For at least one entry, the source does not settle the construct or the ends of the probe.

The target of one series is PDGF-BB (UniProt P01127). The series can be described thus: lateral flow sandwich assay. The note with it: PBST (PBS 0.01 M pH 7.4 + Tween) + 1% BSA running buffer, 10 min lateral flow assay, temperature not stated, commercial protein, single-stranded DNA.
The next series relates to thrombin (human). The series can be described thus: lateral flow sandwich assay. The note with it: PBST (PBS 0.01 M pH 7.4 + Tween) + 1% BSA running buffer, 10 min lateral flow assay, temperature not stated, commercial protein, single-stranded DNA.

As for “TACTCAGGGCACTGCAAGCAATTGTGGTCCCAATGGGCTGAGTAT [PDGF-BB detection aptamer]”, in the series with PDGF-BB (sandwich with N4, 50 nM PDGF-BB, 5' ThioMC6-D, label: AuNP via 5' thiol), the binding result was “binds”. As for “AGTCCGTGGTAGGGCAGGTTGGGGTGACT [thrombin capture aptamer]”, the binding result in the series with PDGF-BB (50 nM PDGF-BB alone, no interference on thrombin test zone, 3' BioTEG, label: 3' biotin (streptavidin on membrane)) was “no binding”; in the series with thrombin (human) (sandwich with AuNP-N1, 50 nM thrombin, 3' BioTEG, label: 3' biotin (streptavidin on membrane)), “binds”. As to “TTTTTTTTTTTTTTTTTTTTGGTTGGTGTGGTTGG [thrombin detection aptamer]”, the binding result with thrombin (human) (sandwich with N2, 50 nM thrombin, 5' ThioMC6-D, label: AuNP via 5' thiol) is listed as “binds”. On to “TACTCAGGGCACTGCAAGCAATTGTGGTCCCAATGGGCTGAGTA [PDGF-BB capture aptamer]”, for which the binding result is “binds” with PDGF-BB (sandwich with AuNP-N3, 50 nM PDGF-BB, 3' BioTEG, label: 3' biotin (streptavidin on membrane)) and “no binding” in the series with thrombin (human) (50 nM thrombin alone, no interference on PDGF-BB test zone, 3' BioTEG, label: 3' biotin (streptavidin on membrane)).
